No constants are given. Whether binding was seen depends on the method and setting. In cells and extracts the contact can be indirect. Some binding calls cover weakened binding; strength is not graded here.
Target: T1, TRIP-Br1 (human (endogenous in HeLa)) (UniProt Q9UHV2)
T1 sequence: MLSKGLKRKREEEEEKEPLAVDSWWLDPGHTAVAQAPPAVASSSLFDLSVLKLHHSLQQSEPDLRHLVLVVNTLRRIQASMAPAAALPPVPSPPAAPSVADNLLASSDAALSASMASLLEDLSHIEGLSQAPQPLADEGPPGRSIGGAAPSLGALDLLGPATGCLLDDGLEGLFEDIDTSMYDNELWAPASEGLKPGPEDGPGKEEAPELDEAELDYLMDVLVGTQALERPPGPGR
Assay: co-IP; nanobead-based SiMPull for cell populations: endogenous TRIP-Br1 pulled down from 10^5 HeLa cells with anti-TRIP-Br1-coated magnetic nanobeads, AC1 detected with anti-AC1 1st antibody and fluorophore-labeled 2nd antibody

Protein sequences, listed by entry. Tags and fused reporters are not part of them.
UniProt Q08828: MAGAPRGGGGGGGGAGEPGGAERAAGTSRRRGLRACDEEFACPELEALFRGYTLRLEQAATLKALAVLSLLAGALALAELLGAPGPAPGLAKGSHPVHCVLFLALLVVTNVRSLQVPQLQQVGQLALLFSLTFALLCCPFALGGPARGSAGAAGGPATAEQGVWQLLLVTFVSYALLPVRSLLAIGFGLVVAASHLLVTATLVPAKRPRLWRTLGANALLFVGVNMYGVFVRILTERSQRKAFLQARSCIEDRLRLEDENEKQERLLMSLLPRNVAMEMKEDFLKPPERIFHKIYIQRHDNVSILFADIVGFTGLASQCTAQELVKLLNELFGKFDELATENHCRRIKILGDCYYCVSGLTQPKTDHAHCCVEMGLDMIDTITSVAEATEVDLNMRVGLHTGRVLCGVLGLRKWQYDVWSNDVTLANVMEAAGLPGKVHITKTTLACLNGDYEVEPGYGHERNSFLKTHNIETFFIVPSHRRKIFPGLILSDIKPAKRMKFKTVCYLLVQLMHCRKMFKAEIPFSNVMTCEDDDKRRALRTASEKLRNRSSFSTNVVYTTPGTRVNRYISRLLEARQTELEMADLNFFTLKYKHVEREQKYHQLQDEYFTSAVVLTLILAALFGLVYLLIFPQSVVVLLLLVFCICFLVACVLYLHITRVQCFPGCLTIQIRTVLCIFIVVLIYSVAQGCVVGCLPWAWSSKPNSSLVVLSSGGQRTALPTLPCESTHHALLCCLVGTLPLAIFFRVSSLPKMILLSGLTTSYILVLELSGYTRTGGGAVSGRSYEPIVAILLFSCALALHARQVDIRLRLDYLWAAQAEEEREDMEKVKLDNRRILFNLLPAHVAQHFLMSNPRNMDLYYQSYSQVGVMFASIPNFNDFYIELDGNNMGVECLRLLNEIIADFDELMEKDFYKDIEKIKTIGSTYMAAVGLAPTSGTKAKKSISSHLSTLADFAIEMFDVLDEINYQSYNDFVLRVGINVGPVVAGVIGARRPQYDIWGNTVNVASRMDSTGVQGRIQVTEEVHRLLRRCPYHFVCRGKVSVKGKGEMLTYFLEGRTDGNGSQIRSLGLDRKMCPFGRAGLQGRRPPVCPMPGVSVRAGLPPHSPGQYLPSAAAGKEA

Substance: adenylyl cyclase 1 (from UniProt Q08828 1-1119) (enzyme)
- binding: binds

From publication PMC10679481
